According to the supplement of paper PMC10849652:
The list shows a part of the results.

Protein sequences, listed by entry. Tags and fused reporters are not part of them. Lines headed by an entry give the natural chain unless they say otherwise; changes in a name come on top.
UniProt Q13177, whole entry, looked up: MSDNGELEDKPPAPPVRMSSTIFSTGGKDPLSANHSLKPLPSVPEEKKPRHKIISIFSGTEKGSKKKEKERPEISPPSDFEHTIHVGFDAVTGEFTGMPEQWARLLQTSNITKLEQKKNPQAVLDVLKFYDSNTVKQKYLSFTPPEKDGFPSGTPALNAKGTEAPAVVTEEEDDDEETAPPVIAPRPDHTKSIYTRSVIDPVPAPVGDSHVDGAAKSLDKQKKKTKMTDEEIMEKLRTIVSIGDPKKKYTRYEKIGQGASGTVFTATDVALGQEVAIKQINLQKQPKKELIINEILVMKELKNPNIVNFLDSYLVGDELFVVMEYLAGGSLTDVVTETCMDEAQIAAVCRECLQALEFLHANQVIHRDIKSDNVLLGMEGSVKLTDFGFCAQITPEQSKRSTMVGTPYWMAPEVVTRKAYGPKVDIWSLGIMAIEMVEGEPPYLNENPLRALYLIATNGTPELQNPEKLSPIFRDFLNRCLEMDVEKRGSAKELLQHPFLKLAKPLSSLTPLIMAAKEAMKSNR
UniProt Q9NX40: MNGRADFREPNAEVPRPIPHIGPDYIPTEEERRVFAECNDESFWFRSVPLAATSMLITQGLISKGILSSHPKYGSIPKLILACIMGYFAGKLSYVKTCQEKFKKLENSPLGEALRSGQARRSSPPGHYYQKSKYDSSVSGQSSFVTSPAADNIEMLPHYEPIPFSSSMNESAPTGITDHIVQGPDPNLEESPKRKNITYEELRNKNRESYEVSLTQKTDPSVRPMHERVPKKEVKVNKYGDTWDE
UniProt Q6GQQ9: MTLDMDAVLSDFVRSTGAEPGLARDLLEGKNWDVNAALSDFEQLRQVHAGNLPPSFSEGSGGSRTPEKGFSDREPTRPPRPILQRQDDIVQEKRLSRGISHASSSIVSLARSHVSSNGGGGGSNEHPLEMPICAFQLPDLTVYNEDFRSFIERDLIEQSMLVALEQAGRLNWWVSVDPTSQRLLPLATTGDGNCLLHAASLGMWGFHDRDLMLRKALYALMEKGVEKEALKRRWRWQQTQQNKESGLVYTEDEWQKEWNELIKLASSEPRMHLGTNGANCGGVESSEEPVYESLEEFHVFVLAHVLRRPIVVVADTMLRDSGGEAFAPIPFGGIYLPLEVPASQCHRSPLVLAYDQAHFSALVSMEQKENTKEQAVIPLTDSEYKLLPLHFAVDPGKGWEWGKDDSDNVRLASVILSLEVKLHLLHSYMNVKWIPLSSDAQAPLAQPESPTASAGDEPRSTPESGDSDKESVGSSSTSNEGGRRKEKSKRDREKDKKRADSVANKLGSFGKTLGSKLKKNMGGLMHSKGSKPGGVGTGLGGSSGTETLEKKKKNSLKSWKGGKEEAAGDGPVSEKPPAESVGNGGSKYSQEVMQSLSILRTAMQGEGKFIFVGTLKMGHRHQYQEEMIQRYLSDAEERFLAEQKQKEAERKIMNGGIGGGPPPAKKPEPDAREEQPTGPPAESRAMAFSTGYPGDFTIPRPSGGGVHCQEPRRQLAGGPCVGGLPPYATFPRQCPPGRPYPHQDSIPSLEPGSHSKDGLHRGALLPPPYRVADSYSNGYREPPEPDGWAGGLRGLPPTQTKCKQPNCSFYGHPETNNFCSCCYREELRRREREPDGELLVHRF
UniProt Q13438: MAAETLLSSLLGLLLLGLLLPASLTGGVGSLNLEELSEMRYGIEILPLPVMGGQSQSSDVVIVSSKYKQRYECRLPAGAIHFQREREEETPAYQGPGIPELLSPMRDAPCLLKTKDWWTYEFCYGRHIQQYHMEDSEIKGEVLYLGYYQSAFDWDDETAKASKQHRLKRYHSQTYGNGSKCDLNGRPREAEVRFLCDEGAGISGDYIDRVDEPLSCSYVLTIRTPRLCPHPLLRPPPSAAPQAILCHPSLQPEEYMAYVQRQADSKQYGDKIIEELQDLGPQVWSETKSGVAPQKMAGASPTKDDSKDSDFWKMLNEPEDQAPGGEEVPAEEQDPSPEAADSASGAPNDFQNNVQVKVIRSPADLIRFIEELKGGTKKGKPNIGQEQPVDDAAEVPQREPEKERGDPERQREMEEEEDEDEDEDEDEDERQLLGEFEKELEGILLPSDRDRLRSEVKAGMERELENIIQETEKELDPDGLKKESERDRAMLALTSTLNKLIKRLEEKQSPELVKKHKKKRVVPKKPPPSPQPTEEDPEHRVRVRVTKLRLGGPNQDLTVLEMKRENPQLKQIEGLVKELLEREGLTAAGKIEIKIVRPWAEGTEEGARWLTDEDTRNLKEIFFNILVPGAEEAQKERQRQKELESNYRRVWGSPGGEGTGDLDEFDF
UniProt Q02218: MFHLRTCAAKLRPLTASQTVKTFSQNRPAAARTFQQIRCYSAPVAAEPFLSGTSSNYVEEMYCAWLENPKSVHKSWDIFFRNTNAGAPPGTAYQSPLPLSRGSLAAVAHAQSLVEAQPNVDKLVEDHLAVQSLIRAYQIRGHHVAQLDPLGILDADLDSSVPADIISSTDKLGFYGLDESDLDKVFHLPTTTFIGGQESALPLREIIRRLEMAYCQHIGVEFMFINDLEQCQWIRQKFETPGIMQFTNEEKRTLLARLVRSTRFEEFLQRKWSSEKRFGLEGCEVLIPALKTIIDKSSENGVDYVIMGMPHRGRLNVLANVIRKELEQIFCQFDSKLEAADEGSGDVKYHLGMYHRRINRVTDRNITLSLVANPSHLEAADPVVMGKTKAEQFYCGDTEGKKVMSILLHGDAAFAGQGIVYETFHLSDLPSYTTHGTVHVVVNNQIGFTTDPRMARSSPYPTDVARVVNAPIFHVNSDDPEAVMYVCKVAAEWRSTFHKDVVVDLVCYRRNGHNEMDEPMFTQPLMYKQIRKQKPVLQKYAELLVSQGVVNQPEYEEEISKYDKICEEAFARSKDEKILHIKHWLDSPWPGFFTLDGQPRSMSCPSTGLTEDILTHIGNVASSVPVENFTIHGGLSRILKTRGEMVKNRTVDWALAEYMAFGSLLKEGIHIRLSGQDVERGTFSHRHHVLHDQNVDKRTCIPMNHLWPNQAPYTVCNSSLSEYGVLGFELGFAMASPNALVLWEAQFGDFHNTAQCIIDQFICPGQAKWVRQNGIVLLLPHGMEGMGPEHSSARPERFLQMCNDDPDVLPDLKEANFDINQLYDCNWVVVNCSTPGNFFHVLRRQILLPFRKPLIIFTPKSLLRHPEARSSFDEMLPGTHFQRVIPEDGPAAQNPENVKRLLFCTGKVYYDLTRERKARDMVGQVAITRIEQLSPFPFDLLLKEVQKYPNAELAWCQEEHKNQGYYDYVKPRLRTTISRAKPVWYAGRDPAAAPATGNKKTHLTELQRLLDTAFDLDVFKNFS
UniProt Q6N063: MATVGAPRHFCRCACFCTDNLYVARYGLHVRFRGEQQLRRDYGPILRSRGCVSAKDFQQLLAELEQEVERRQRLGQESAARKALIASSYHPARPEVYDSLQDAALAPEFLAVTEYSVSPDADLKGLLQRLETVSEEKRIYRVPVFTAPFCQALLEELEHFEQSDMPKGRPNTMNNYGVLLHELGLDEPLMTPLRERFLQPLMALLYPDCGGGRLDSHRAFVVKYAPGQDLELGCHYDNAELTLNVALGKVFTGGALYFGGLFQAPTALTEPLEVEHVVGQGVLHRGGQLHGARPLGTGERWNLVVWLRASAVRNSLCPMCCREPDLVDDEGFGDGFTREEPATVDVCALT
UniProt A6NDB9: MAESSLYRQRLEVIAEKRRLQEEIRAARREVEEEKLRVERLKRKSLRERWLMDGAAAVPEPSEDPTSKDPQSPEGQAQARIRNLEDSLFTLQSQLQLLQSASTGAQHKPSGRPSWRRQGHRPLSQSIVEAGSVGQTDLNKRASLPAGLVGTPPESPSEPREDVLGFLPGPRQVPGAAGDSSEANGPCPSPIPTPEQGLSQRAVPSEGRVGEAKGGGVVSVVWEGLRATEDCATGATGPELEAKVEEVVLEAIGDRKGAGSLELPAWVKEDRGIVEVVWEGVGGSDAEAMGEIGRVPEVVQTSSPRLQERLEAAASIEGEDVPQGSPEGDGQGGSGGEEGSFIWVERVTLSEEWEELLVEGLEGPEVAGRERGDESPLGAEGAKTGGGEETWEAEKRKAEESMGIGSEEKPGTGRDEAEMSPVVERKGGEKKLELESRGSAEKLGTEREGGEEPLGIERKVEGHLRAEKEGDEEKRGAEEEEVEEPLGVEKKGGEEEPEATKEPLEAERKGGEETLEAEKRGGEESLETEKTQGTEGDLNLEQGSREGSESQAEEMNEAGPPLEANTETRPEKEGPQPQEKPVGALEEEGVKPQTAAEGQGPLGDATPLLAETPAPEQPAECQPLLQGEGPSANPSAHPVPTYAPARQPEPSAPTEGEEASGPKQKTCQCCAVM
UniProt P35658: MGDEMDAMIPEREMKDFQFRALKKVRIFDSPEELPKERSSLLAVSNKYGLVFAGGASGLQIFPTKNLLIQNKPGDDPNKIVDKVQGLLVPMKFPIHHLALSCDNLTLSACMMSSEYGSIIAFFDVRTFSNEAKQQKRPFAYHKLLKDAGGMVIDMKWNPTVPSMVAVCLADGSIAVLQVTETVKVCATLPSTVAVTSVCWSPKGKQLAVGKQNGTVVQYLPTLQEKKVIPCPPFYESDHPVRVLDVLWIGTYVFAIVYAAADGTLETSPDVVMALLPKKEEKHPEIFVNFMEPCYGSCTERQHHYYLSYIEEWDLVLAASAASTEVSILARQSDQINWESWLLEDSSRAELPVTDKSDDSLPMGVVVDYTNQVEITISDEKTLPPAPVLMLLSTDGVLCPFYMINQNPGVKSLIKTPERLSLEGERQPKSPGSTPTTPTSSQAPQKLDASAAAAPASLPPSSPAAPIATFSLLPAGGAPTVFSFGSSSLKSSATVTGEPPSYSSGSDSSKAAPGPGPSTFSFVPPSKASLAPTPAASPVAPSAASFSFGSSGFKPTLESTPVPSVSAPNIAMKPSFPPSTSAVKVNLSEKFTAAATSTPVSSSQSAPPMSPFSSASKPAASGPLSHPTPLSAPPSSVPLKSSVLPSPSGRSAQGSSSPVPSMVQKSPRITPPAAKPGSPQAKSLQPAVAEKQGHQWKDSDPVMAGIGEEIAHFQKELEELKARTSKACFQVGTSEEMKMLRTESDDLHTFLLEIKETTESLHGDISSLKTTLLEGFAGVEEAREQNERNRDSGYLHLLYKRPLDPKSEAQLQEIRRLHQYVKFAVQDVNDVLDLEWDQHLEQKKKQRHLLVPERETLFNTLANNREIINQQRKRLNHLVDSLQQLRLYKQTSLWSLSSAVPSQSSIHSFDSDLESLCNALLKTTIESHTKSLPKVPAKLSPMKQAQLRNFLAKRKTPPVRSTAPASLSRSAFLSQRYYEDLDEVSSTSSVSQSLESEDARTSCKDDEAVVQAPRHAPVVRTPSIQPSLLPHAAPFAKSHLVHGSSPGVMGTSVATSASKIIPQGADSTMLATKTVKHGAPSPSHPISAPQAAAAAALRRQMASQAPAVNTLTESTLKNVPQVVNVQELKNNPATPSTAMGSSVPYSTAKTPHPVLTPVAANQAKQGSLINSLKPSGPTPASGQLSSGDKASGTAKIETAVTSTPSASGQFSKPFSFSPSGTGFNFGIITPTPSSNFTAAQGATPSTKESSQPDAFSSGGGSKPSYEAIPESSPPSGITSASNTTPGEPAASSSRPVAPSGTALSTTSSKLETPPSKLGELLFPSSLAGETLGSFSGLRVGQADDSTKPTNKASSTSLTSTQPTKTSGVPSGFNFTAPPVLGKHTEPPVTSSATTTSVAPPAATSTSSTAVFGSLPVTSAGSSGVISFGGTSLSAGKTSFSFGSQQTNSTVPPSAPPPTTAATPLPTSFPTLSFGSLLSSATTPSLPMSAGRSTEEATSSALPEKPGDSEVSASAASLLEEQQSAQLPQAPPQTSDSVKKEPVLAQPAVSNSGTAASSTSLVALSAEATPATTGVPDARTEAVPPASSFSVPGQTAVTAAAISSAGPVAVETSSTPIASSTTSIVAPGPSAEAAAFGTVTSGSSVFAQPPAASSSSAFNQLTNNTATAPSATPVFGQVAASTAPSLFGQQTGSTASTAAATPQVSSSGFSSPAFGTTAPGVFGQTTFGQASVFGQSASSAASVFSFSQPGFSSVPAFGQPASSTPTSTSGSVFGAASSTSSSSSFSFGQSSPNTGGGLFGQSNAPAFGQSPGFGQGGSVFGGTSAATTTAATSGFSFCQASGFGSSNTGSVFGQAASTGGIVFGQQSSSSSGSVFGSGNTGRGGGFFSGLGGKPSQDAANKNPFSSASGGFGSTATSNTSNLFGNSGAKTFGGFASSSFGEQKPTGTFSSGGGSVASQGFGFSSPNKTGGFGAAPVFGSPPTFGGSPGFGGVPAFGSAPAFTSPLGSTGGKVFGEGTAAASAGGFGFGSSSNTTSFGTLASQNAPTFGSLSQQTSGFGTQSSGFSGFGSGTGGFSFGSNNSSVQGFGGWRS

Assays:
Assay in all cases: log2 fold change, soluble protein after heating vs DMSO (PISA); higher = thermal stabilisation; K562 lysate, 10 uM; active = over 0.2 and 3.5 SD of the protein, either way, in both replicates (recomputed)
vemurafenib = compound: CCCS(=O)(=O)Nc1ccc(F)c(C(=O)c2c[nH]c3ncc(-c4ccc(Cl)cc4)cc23)c1F [vemurafenib]
Method in brief: (§1)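 Dounce homogenisation of K562 pellets in PBS pH 7.4 with 1 mM MgCl2 produced a crude extract, used at 1 mg/mL protein. Exposure to 10 μM compound lasted 30 min, and aliquots were then heated for 3 min across 48°C-58°C, pooled and brought to 0.5% NP-40 at 4°C. The supernatant after 21,000xg for 90 min was quantified by TMTpro 16plex LC-MS/MS with channel sums equalised. Duplicate values are given as log-two fold change in thermal stability relative to solvent controls.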

[1] = compound: CCCS(=O)(=O)Nc1ccc(F)c(C(=O)c2c[nH]c3ncc(Cl)cc23)c1F
Method in brief: as §1

barasertib = compound: CCN(CCCOc1ccc2c(Nc3cc(CC(=O)Nc4cccc(F)c4)[nH]n3)ncnc2c1)CCOP(=O)(O)O [barasertib]
Method in brief: as §1

[2] = compound: CC[C@@H]1C(=O)N(C)c2cnc(Nc3ccc(C(=O)NC4CCN(C)CC4)cc3OC)nc2N1C1CCCC1
Method in brief: as §1

volasertib = compound: CC[C@@H]1C(=O)N(C)c2cnc(Nc3ccc(C(=O)N[C@H]4CC[C@H](N5CCN(CC6CC6)CC5)CC4)cc3OC)nc2N1C(C)C [volasertib]
Method in brief: as §1

[3] = compound: CCn1c(C(=O)N(C2CC2)C2CC2)cc2c3c(ncn3C)c(Nc3cc(C)n(C)n3)nc21
Method in brief: as §1

[4] = compound: CCn1cc(-c2ccnc3[nH]c(-c4cccc(CN(C)C)c4)cc23)c(-c2ccc(NC(=O)N(C)C)cc2)n1
Method in brief: as §1

[5] = compound: CN1CCC(CNc2ccc3ncc(-c4cccc(OC(F)(F)F)c4)n3n2)CC1
Method in brief: as §1

saracatinib = compound: CN1CCN(CCOc2cc(OC3CCOCC3)c3c(Nc4c(Cl)ccc5c4OCO5)ncnc3c2)CC1 [saracatinib]
Method in brief: as §1

sotrastaurin = compound: CN1CCN(c2nc(C3=C(c4c[nH]c5ccccc45)C(=O)NC3=O)c3ccccc3n2)CC1 [sotrastaurin]
Method in brief: as §1

alvocidib = compound: CN1CC[C@H](c2c(O)cc(O)c3c(=O)cc(-c4ccccc4Cl)oc23)[C@H](O)C1 [alvocidib]
Method in brief: as §1

Tubastatin A = compound: CN1CCc2c(c3ccccc3n2Cc2ccc(C(=O)NO)cc2)C1 [Tubastatin A]
Method in brief: as §1

[6] = compound: CNC(=O)C1=CC=CC=C1NC2=NC(=NC=C2Cl)NC3=C(C=C(C=C3)N4CCOCC4)OC
Method in brief: as §1

defactinib = compound: CNC(=O)c1ccc(Nc2ncc(C(F)(F)F)c(NCc3nccnc3N(C)S(C)(=O)=O)n2)cc1 [defactinib]
Method in brief: as §1

[7] = compound: CNc1nc(-c2ccc3c(N)n[nH]c3c2)cc(N2C[C@@H](C(=O)NC3CCCCC3)CC[C@H]2C)n1
Method in brief: as §1

encorafenib = compound: COC(=O)N[C@@H](C)CNc1nccc(-c2cn(C(C)C)nc2-c2cc(Cl)cc(NS(C)(=O)=O)c2F)n1 [encorafenib]
Method in brief: as §1

[8] = compound: COC(=O)[C@H](CCSC)NC(=O)C1=C(C=C(C=C1)NC[C@H](CS)N)C2=CC=CC=C2
Method in brief: as §1

alisertib = compound: COc1cc(Nc2ncc3c(n2)-c2ccc(Cl)cc2C(c2c(F)cccc2OC)=NC3)ccc1C(=O)O [alisertib]
Method in brief: as §1

[9] = compound: COc1cc2nc(-c3cc(F)ccc3O)nc(N[C@@H]3CNC[C@H]3C(C)(C)O)c2cc1OC
Method in brief: as §1

gefitinib = compound: COc1cc2ncnc(Nc3ccc(F)c(Cl)c3)c2cc1OCCCN1CCOCC1 [gefitinib]
Method in brief: as §1

Measured: log2 fold change

NUS1 (UniProt Q96E22)
inactive: vemurafenib -0.026 | [1] 0.046 | barasertib 0.008 | [2] 0.075 | volasertib -0.004 | [3] 0.002 | [4] 0.118 | [5] -0.031 | saracatinib 0.085 | sotrastaurin 0.013 | alvocidib 0.057 | Tubastatin A -0.007 | [6] 0.048 | defactinib 0.281 | [7] -0.013 | encorafenib -0.056 | [8] -0.124 | alisertib -0.012 | [9] -0.033 | gefitinib 0.134

PAK2 (UniProt Q13177)
inactive: vemurafenib -0.005 | [1] -0.016 | barasertib -0.03 | [2] 0.025 | volasertib 0.016 | [3] -0.006 | [4] 0.062 | [5] -0.024 | saracatinib 0.008 | sotrastaurin 0.022 | alvocidib 0.022 | Tubastatin A 0.038 | [6] -0.005 | defactinib -0.007 | [7] 0.002 | encorafenib -0.014 | [8] -0.044 | alisertib -0.026 | [9] 0.007 | gefitinib 0.001

OCIAD1 (UniProt Q9NX40)
inactive: vemurafenib -0.027 | [1] 0.002 | barasertib -0.028 | [2] 0.042 | volasertib 0.018 | [3] -0.014 | [4] -0.016 | [5] -0.017 | saracatinib 0.022 | sotrastaurin -0.016 | alvocidib 0.039 | Tubastatin A 0.054 | [6] 0.004 | defactinib -0.012 | [7] 0.079 | encorafenib 0.002 | [8] 0.036 | alisertib -0.004 | [9] 0.005 | gefitinib 0.018

PAFAH1B3 (UniProt Q15102)
inactive: vemurafenib -0.008 | [1] 0.002 | barasertib 0.119 | [2] -0.061 | volasertib -0.067 | [3] 0.031 | [4] -0.04 | [5] -0.021 | saracatinib 0.013 | sotrastaurin -0.009 | alvocidib 0.005 | Tubastatin A -0.067 | [6] 0.019 | defactinib 0.065 | [7] -0.017 | encorafenib -0.016 | alisertib 0.058 | [9] -0.022 | gefitinib -0.02
active: [8] 0.212

NUP50 (UniProt Q9UKX7)
inactive: vemurafenib 0.057 | [1] -0.003 | barasertib -0.014 | [2] 0.067 | volasertib 0.003 | [3] -0.012 | [4] -0.183 | [5] 0.072 | saracatinib 0.023 | sotrastaurin -0.003 | alvocidib -0.043 | Tubastatin A 0.03 | [6] 0.007 | defactinib 0.003 | [7] 0.045 | encorafenib 0.023 | [8] -0.049 | alisertib -0.017 | [9] 0.015 | gefitinib -0.019

OTUD7B (UniProt Q6GQQ9)
inactive: vemurafenib 0.033 | [1] 0.011 | barasertib 0.116 | [2] -0.029 | volasertib -0.049 | [3] 0.018 | [4] 0.017 | [5] -0.042 | saracatinib 0.015 | sotrastaurin -0.011 | alvocidib -0.052 | Tubastatin A -0.099 | [6] 0.005 | defactinib 0.022 | [7] -0.011 | encorafenib 0.042 | [8] 0.049 | alisertib -0.006 | [9] -0.031 | gefitinib 0.062

OS9 (UniProt Q13438)
inactive: vemurafenib 0.024 | [1] 0.021 | barasertib -0.009 | [2] -0.008 | volasertib 0.004 | [3] 0.013 | [4] -0.081 | [5] 0.037 | saracatinib -0.012 | sotrastaurin 0.006 | alvocidib -0.013 | Tubastatin A 0.002 | [6] 0.001 | defactinib -0.022 | [7] 0.006 | encorafenib -0.006 | [8] -0.04 | alisertib -0.006 | [9] 0.012 | gefitinib 0.013

Two successive entries from above, quoted:
PAFAH1B3 (UniProt Q15102)
inactive: vemurafenib -0.008 | [1] 0.002 | barasertib 0.119 | [2] -0.061 | volasertib -0.067 | [3] 0.031 | [4] -0.04 | [5] -0.021 | saracatinib 0.013 | sotrastaurin -0.009 | alvocidib 0.005 | Tubastatin A -0.067 | [6] 0.019 | defactinib 0.065 | [7] -0.017 | encorafenib -0.016 | alisertib 0.058 | [9] -0.022 | gefitinib -0.02
active: [8] 0.212

NUP50 (UniProt Q9UKX7)
inactive: vemurafenib 0.057 | [1] -0.003 | barasertib -0.014 | [2] 0.067 | volasertib 0.003 | [3] -0.012 | [4] -0.183 | [5] 0.072 | saracatinib 0.023 | sotrastaurin -0.003 | alvocidib -0.043 | Tubastatin A 0.03 | [6] 0.007 | defactinib 0.003 | [7] 0.045 | encorafenib 0.023 | [8] -0.049 | alisertib -0.017 | [9] 0.015 | gefitinib -0.019

Next entries.

PACC1 (UniProt Q9H813)
inactive: vemurafenib -0.034 | [1] 0.046 | barasertib 0.009 | [2] 0.108 | volasertib -0.035 | [3] -0.05 | [4] -0.006 | [5] 0.04 | saracatinib 0.152 | sotrastaurin 0.061 | alvocidib 0.003 | Tubastatin A -0.003 | [6] -0.1 | defactinib -0.04 | [7] -0.385 | encorafenib -0.059 | [8] 0.021 | alisertib -0.042 | [9] -0.138 | gefitinib -0.085

P4HB (UniProt P07237)
inactive: vemurafenib -0.009 | [1] -0.014 | barasertib -0.033 | [2] 0.029 | volasertib 0.028 | [3] 0.015 | [4] 0.056 | [5] -0.018 | saracatinib -0.021 | sotrastaurin 0.035 | alvocidib 0.006 | Tubastatin A 0.015 | [6] -0.021 | defactinib -0.026 | [7] -0.023 | encorafenib -0.009 | [8] -0.046 | alisertib -0.004 | [9] -0.011 | gefitinib 0.022

PARK7 (UniProt Q99497)
inactive: vemurafenib 0.012 | [1] -0.01 | barasertib 0.028 | [2] 0.001 | volasertib 0.035 | [3] -0.011 | [4] 0.034 | [5] -0.034 | saracatinib -0.021 | sotrastaurin -0.04 | alvocidib 0.019 | Tubastatin A 0.057 | [6] -0.009 | defactinib -0.07 | [7] 0.075 | encorafenib -0.054 | [8] 0.004 | alisertib 0.018 | [9] 0.013 | gefitinib -0.005

OGDH (UniProt Q02218)
inactive: vemurafenib 0.062 | [1] 0.005 | barasertib 0.068 | [2] -0.056 | volasertib -0.049 | [3] 0.01 | [4] -0.045 | [5] -0.078 | saracatinib -0.022 | sotrastaurin 0.014 | alvocidib -0.025 | Tubastatin A -0.038 | [6] -0.018 | defactinib 0.06 | [7] -0.026 | encorafenib -0.017 | [8] 0.114 | alisertib -0.013 | [9] -0.012 | gefitinib -0.032

OGFOD2 (UniProt Q6N063)
active: [8] 0.223
inactive: vemurafenib 0.024 | [1] 0.173 | barasertib 0.005 | [2] -0.147 | volasertib -0.062 | [3] -0.023 | [4] -0.042 | [5] 0.071 | saracatinib -0.047 | sotrastaurin 0.039 | alvocidib 0.029 | Tubastatin A 0.033 | [6] 0.059 | defactinib 0.015 | [7] -0.125 | encorafenib -0.054 | alisertib 0.009 | [9] -0.014 | gefitinib -0.065

PALM3 (UniProt A6NDB9)
inactive: vemurafenib -0.001 | [1] 0.008 | barasertib -0.033 | [2] 0.022 | volasertib -0.027 | [3] -0.029 | [4] -0.132 | [5] 0.058 | saracatinib 0.013 | sotrastaurin -0.021 | alvocidib 0.022 | Tubastatin A 0.057 | [6] 0.066 | defactinib -0.056 | [7] -0.009 | encorafenib -0.001 | [8] -0.028 | alisertib -0.124 | [9] 0.02 | gefitinib -0.01

NUP214 (UniProt P35658)
inactive: vemurafenib 0.011 | [1] 0.003 | barasertib 0.044 | [2] 0.009 | volasertib -0.033 | [3] 0.003 | [4] -0.08 | [5] 0.065 | saracatinib 0.027 | sotrastaurin 0.008 | alvocidib -0.039 | Tubastatin A -0.029 | [6] -0.015 | defactinib 0.016 | [7] 0.012 | encorafenib 0.029 | [8] 0.04 | alisertib 0.029 | [9] 0.017 | gefitinib 0.024

PARD6B (UniProt Q9BYG5)
inactive: vemurafenib -0.001 | [1] -0.03 | barasertib -0.045 | [2] 0.001 | volasertib -0.035 | [3] 0.023 | [4] -0.09 | [5] -0.033 | saracatinib 0.036 | sotrastaurin -0.061 | alvocidib 0.001 | Tubastatin A -0.066 | [6] 0.025 | defactinib -0.018 | [7] -0.067 | encorafenib 0.009 | [8] 0.019 | alisertib -0.032 | [9] -0.023 | gefitinib 0.037

PAK1IP1 (UniProt Q9NWT1)
inactive: vemurafenib -0.016 | [1] 0.014 | barasertib 0.033 | [2] -0.037 | volasertib 0.016 | [3] -0.004 | [4] -0.018 | [5] 0.022 | saracatinib 0.025 | sotrastaurin 0.036 | alvocidib 0.042 | Tubastatin A 0.007 | [6] 0.02 | defactinib -0.01 | [7] 0.046 | encorafenib 0.003 | [8] -0.027 | alisertib -0.023 | [9] 0.015 | gefitinib -0.009
